Source: paper PMC7819943, “Rice protein-binding microarrays: a tool to detect cis-acting elements near promoter regions in rice”
The list shows a part of the results.

target: T1, OsSMF1 (Oryza sativa, UniProt Q6ZLB0 1-436); assay: protein-binding microarray (RPBM); PBS, 2% BSA, 51.3 ng/ul salmon testes DNA, 50 uM zinc acetate, 200 nM TF, 25 C, 1 h; high values mean tight binding; details: protein: recombinant; tags: N-terminal polyhistidine and DsRed monomer fusion (pET32a); chain copies: 2; label: CyDye5-dUTP incorporated in the synthesized complementary strand; 3' TTTTT single-stranded linker to array surface; dsDNA, one strand shown
T1 sequence: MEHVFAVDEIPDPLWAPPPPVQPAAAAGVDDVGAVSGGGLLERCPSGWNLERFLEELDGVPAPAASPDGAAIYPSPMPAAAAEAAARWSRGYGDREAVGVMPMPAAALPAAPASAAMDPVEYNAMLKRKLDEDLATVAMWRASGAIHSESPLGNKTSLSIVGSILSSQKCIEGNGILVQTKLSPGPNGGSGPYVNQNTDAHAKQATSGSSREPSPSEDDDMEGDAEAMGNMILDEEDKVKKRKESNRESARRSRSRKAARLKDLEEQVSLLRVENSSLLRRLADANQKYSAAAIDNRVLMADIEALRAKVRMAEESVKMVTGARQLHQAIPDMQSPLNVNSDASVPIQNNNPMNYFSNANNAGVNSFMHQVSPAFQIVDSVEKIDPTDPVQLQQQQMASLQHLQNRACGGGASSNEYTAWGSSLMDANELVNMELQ
Method in brief: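 Binding signal is reported as fluorescence intensity per feature (arbitrary units) from an Axon 4000B scanner. Incubation used 200 nM of each Ni–NTA-purified, N-terminally polyhistidine- and DsRed-fused transcription factor from E. coli BL21-CodonPlus on a double-stranded custom Agilent array for 1 h at 25 °C, with 50 µM zinc acetate in the buffer, followed by washing.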

Row | Sequence | binding signal
1 | ACGAGATGAATCTTTTAACCTAGCTAGTCCATGATTAGCTCGGAGTCACCTAGTGCAG | 3350 fluorescence intensity (a.u.)
2 | CCTTGACAAGTTTGTCCTCAATTTGATTTCAAGTCTAAAACGGAGTCACCTAGTGCAG | 30900 fluorescence intensity (a.u.)
3 | CCAAGCCTTTTCCCACACGATTAGCTGTTGCAATTCATTCCGGAGTCACCTAGTGCAG | 3520 fluorescence intensity (a.u.)
4 | TTTTCCTATCATTTGTTTTGCACACGCGTTCCTATACGATCGGAGTCACCTAGTGCAG | 4480 fluorescence intensity (a.u.)
5 | ATACACGTATGCAAAAGTTTGCATACGTGTATATAAAGTTCGGAGTCACCTAGTGCAG | 12600 fluorescence intensity (a.u.)
6 | TGCTCCTCTTCCTCGTCACCGCCGTCCTCCTCTTCCATCTCGGAGTCACCTAGTGCAG | 6460 fluorescence intensity (a.u.)
7 | TCCGCAGTCCGCACGAAGCACGACGCGACGACACGGATCACGGAGTCACCTAGTGCAG | 14200 fluorescence intensity (a.u.)
8 | ATCAGCCGCTTCTCCTCCTCCACGTCCATCGCCGCCGGCGCGGAGTCACCTAGTGCAG | 4220 fluorescence intensity (a.u.)
9 | AAATCGTTTAGAGTGACTGAATACTCAACAATGAAAGCTGCGGAGTCACCTAGTGCAG | 20300 fluorescence intensity (a.u.)
10 | GCTCCTGATTTCTAGCTTGCTGTTGACAAAATTAGCTGTTCGGAGTCACCTAGTGCAG | 3740 fluorescence intensity (a.u.)
11 | AATAAGTAAGGTGGTTTTAAAATTTGGGGAGAGCTAACAGCGGAGTCACCTAGTGCAG | 39100 fluorescence intensity (a.u.)
12 | TTCCAGGTGGGACCGACGCGCGCCACGTCAGCGTAGCGGGCGGAGTCACCTAGTGCAG | 27400 fluorescence intensity (a.u.)
13 | ATTAATTATCATATAACGGTGTTATGTGGAGTGTGATGATCGGAGTCACCTAGTGCAG | 3280 fluorescence intensity (a.u.)
14 | AAGTAGGCGTAGTTAAATCAAATGAGTGCTGTGCTGTCCACGGAGTCACCTAGTGCAG | 3400 fluorescence intensity (a.u.)
15 | CAATTATCCGCAACGTATGGCTAGCTCAACCCTACTGTAACGGAGTCACCTAGTGCAG | 3270 fluorescence intensity (a.u.)
16 | GGCGGTGCACGGCGGCGGCGGCGGTGGCGCTGGTGGGATGCGGAGTCACCTAGTGCAG | 3160 fluorescence intensity (a.u.)
17 | ACGTTTTGGCGGGAGTATCACGGGAGGGCCCACCTGTCATCGGAGTCACCTAGTGCAG | 30400 fluorescence intensity (a.u.)
18 | GTCGCCGCCCTCAACACGGTGTTCATCTACTGGATCTTCACGGAGTCACCTAGTGCAG | 4680 fluorescence intensity (a.u.)
19 | AATTATCATAAAACAACATATTTAAACCATGGTAACATAACGGAGTCACCTAGTGCAG | 6200 fluorescence intensity (a.u.)
20 | CCCTCCCATCATCAAGTCACCCACCAAGCGAAGCAAACCCCGGAGTCACCTAGTGCAG | 4280 fluorescence intensity (a.u.)
21 | TCACATCAGATGTTTGACTAGATGTTGAAAGGGGTTTTCGCGGAGTCACCTAGTGCAG | 3310 fluorescence intensity (a.u.)

Taken from the results shown for reference:
Row | Sequence | binding signal
6 | TGCTCCTCTTCCTCGTCACCGCCGTCCTCCTCTTCCATCTCGGAGTCACCTAGTGCAG | 6460 fluorescence intensity (a.u.)
7 | TCCGCAGTCCGCACGAAGCACGACGCGACGACACGGATCACGGAGTCACCTAGTGCAG | 14200 fluorescence intensity (a.u.)
8 | ATCAGCCGCTTCTCCTCCTCCACGTCCATCGCCGCCGGCGCGGAGTCACCTAGTGCAG | 4220 fluorescence intensity (a.u.)
9 | AAATCGTTTAGAGTGACTGAATACTCAACAATGAAAGCTGCGGAGTCACCTAGTGCAG | 20300 fluorescence intensity (a.u.)
10 | GCTCCTGATTTCTAGCTTGCTGTTGACAAAATTAGCTGTTCGGAGTCACCTAGTGCAG | 3740 fluorescence intensity (a.u.)
11 | AATAAGTAAGGTGGTTTTAAAATTTGGGGAGAGCTAACAGCGGAGTCACCTAGTGCAG | 39100 fluorescence intensity (a.u.)
12 | TTCCAGGTGGGACCGACGCGCGCCACGTCAGCGTAGCGGGCGGAGTCACCTAGTGCAG | 27400 fluorescence intensity (a.u.)
13 | ATTAATTATCATATAACGGTGTTATGTGGAGTGTGATGATCGGAGTCACCTAGTGCAG | 3280 fluorescence intensity (a.u.)
14 | AAGTAGGCGTAGTTAAATCAAATGAGTGCTGTGCTGTCCACGGAGTCACCTAGTGCAG | 3400 fluorescence intensity (a.u.)
15 | CAATTATCCGCAACGTATGGCTAGCTCAACCCTACTGTAACGGAGTCACCTAGTGCAG | 3270 fluorescence intensity (a.u.)

More entries follow.

Row | Sequence | binding signal
22 | AAAATGACAATTCCTGTCTCATGATGCTTACATGTCCATGCGGAGTCACCTAGTGCAG | 4050 fluorescence intensity (a.u.)
23 | AGGGGATAGATGGAAATCATGACGGGAGTGGCACGGTTCTCGGAGTCACCTAGTGCAG | 14500 fluorescence intensity (a.u.)
24 | TCCAATTTCATCCAACTCAGCTATAGCTTTCTTTGCACCTCGGAGTCACCTAGTGCAG | 4350 fluorescence intensity (a.u.)
25 | TCGGTTGGAGCAAGCGGCGGCGCAGACGTGGAAGCCCTTCCGGAGTCACCTAGTGCAG | 5460 fluorescence intensity (a.u.)
26 | CCACCGCCACGTTCCTCCTCACCTTTCACCCACCCACCACCGGAGTCACCTAGTGCAG | 4350 fluorescence intensity (a.u.)
27 | GAGTACATGTATGGACAGACACTGTATGAATGATGTATGTCGGAGTCACCTAGTGCAG | 3380 fluorescence intensity (a.u.)
28 | AGTTGATTCGGATCGTGTGCTCGTGATTTTGATCAACTTACGGAGTCACCTAGTGCAG | 19600 fluorescence intensity (a.u.)
29 | CTCAAGCAGCGGAAGCGCGGGGCCTCCGGCTCCACCTCCGCGGAGTCACCTAGTGCAG | 3240 fluorescence intensity (a.u.)
30 | AAGCTCATCTTGTTCCGTGAGCGGGTCTATCTATTAGAGCCGGAGTCACCTAGTGCAG | 3780 fluorescence intensity (a.u.)
31 | ACTTAACTCGTATAGGTAGAGAACCTGACCAGCTGAGCTCCGGAGTCACCTAGTGCAG | 3490 fluorescence intensity (a.u.)
32 | CACACTCTCACTGTCCACGCTTGTCTTGGCCGCTTGACTACGGAGTCACCTAGTGCAG | 3550 fluorescence intensity (a.u.)
33 | CGACCGACCGGACCGGACCCAACGCGCGCACCCAACTACCCGGAGTCACCTAGTGCAG | 3440 fluorescence intensity (a.u.)
34 | CATGCTAATGTGTACACACTATTTCATCCGTCATCACACCCGGAGTCACCTAGTGCAG | 3980 fluorescence intensity (a.u.)
35 | TCCGCGCACGACACGTGTCCAGTCACGCTTTGAACGCTAACGGAGTCACCTAGTGCAG | 11600 fluorescence intensity (a.u.)
36 | CGGTTTGTAACGGAATAGTTGATGTCAGCACGATATCGTACGGAGTCACCTAGTGCAG | 7210 fluorescence intensity (a.u.)
37 | CACACCCAGACGGCCGCCGTTAGCCACGCGTCCTCCCCTCCGGAGTCACCTAGTGCAG | 4290 fluorescence intensity (a.u.)
38 | TGACCCTCAACCGTAAAACCGGATAGGATGACTCCCCGAACGGAGTCACCTAGTGCAG | 3680 fluorescence intensity (a.u.)
39 | GTATCTCGATCCTGATCAATGCTCCACATCACCGAGAAGCCGGAGTCACCTAGTGCAG | 6090 fluorescence intensity (a.u.)
40 | CTCGAGTCGCCACCTGCCACGCCTCCGTCGCCGTCGCCGCCGGAGTCACCTAGTGCAG | 5230 fluorescence intensity (a.u.)
41 | TCCTCCTGTCCGTCCAAGCAATCCAAACTCTCTCTTCCCTCGGAGTCACCTAGTGCAG | 3910 fluorescence intensity (a.u.)
42 | CGAAGAGGTCGCTTTCTGTACCGTCTGGAAGACGTCATGTCGGAGTCACCTAGTGCAG | 4520 fluorescence intensity (a.u.)
